In the assay the target is GFP-CPAP (doxycycline-inducible) (UniProt Q9HC77). The assay can be described thus: co-IP.

Protein sequences, listed by entry. Tags and fused reporters are not part of them.
UniProt Q9HC77: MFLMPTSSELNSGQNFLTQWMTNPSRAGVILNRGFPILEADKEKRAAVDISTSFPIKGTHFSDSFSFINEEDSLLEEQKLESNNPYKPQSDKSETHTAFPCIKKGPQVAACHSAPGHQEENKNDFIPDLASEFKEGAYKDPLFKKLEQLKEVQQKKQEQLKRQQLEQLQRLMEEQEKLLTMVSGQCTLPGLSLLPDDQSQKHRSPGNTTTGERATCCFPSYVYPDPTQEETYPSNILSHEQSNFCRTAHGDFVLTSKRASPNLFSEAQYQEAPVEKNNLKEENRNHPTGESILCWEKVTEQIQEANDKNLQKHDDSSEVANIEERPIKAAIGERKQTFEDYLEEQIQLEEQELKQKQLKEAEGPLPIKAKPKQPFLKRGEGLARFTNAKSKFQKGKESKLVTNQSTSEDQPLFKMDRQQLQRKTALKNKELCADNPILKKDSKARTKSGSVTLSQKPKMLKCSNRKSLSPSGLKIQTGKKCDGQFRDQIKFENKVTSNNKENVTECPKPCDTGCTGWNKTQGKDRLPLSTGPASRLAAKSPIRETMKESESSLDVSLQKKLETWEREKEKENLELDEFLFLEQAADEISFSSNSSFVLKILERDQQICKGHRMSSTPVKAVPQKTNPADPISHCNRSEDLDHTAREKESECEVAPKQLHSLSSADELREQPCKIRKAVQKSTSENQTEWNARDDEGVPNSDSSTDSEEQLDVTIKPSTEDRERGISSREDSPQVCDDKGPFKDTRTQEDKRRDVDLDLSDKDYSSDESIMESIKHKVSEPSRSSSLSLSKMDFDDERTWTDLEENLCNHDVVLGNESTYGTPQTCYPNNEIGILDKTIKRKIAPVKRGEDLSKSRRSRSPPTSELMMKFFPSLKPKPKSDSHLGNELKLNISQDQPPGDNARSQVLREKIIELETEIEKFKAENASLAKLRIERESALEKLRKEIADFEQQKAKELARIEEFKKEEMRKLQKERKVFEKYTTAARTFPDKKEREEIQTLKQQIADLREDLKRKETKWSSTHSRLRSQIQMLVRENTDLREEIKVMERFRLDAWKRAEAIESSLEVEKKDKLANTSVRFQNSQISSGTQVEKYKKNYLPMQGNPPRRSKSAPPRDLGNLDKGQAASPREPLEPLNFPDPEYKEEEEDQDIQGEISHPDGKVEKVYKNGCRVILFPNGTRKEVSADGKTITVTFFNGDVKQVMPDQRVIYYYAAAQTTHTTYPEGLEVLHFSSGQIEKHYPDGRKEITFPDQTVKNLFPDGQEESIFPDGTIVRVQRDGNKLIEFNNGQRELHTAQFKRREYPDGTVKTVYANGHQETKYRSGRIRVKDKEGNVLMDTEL
UniProt Q99816: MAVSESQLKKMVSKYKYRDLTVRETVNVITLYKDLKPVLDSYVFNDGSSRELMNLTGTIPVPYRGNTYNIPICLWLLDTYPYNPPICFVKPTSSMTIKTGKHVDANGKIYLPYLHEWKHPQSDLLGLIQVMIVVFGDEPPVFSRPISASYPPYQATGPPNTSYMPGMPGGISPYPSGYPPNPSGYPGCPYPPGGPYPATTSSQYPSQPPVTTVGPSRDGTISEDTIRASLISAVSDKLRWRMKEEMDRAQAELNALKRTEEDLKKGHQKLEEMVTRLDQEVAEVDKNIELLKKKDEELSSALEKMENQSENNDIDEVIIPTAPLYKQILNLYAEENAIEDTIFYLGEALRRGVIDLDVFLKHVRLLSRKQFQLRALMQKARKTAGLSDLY

Results are given in words; binding and its absence hold for the method and conditions named. In cells and extracts the contact can be indirect. Some binding calls cover weakened binding; strength is not graded here.

Turning to “TSG101 (ESCRT-I protein), endogenous (from UniProt Q99816 1-390)”, the binding entry is on record as “binds”.

The values above are taken from doi:10.1101/2025.08.09.669489.
